In patent US12435037B2, “Acetylsalicylic acid derivative and application thereof” (Zhejiang Hanmai Pharmaceutical Technology Co., Ltd., priority 2018, dated 2025):

Tested on: monkey platelet aggregation
Assay: Inhibitory effect on monkey platelet aggregation after transdermal administration
Assay type: in vivo
Conditions: cynomolgus monkeys, transdermal daily for four weeks (70 mg/kg; comparator 60 mg/kg), inducer 1 mM arachidonic acid
Description: The dose volume for a monkey was calculated based on its weight. The hair on the monkey's back was shaved, and the drug was evenly applied to the bare skin. The drug was administered continuously every day for four weeks. Blank blood was collected before administration, and blood was collected once a week after administration to detect the platelet aggregation ability (the inducer was 1 mM arachidonic acid).

CCN(CC)C(=O)COC(=O)c1ccccc1OC(C)=O
inhibitory effect on platelet aggregation: significant inhibitory effect
platelet aggregation rate: decreased significantly since the second week
